Drawing on US20190284272A1 (published 2019), this text covers binding for 11 molecules.

For assay [1], the target named is canine IL-31 protein (Canine_IL31) (canine). The experiment in a line: SPR (Biacore). (In general: SPR reads the build-up and loss of mass on a sensor chip optically.)
The target in assay [2] is wildtype feline IL-31 protein (Feline_IL31_wildtype) (feline). The experiment in a line: SPR (Biacore).
Assay [3] addresses canine IL-31 protein (Canine_IL31) (canine). The assay can be described thus: SPR (Biacore), FIG. 2 Section B.
Assay [4] deals with wildtype feline IL-31 protein (Feline_IL31_wildtype) (feline). The assay can be described thus: SPR (Biacore), FIG. 2 Section B.
Assay [5] shares this target. The assay can be described thus: SPR (Biacore), FIG. 2 Sections A and B.
Assay [6] concerns the target canine IL-31 protein (Canine_IL31) (canine). The experiment in a line: Biacore, IL-31 surface, single antibody concentration (FIG. 4).
Assay [7] concerns the target wildtype feline IL-31 protein (Feline_IL31_wildtype) (feline). Described as above.
Assay [8] has as its target canine IL-31 protein (Canine_IL31) (canine). The assay can be described thus: SPR (Biacore), IL-31 protein as surface.
In assay [9] the target is mutant feline IL-31 11E12 protein (Feline_IL31_11E12_mutant) (feline). The experiment in a line: SPR (Biacore), IL-31 protein as surface.
The target in assay [10] is wildtype feline IL-31 protein (Feline_IL31_wildtype) (feline). The assay can be described thus: SPR (Biacore), IL-31 protein as surface.
The target is the same in assay [11]. The assay can be described thus: SPR (Biacore), FIG. 2 Section D.
Assay [12] shares this target. The assay can be described thus: SPR (Biacore), values in FIG. 2.
Assay [13] has as its target mutant feline IL-31 15H05 protein (Feline_IL31_15H05_mutant) (feline). The assay can be described thus: Biacore, IL-31 surface, single antibody concentration (FIG. 4).
For assay [14], the target named is canine IL-31 protein (Canine_IL31) (canine). The experiment in a line: SPR (Biacore), FIG. 2.
Assay [15] deals with wildtype feline IL-31 protein (Feline_IL31_wildtype) (feline). The assay can be described thus: SPR (Biacore), FIG. 2.
The target of assay [16] is canine IL-31 protein (Canine_IL31) (canine). The assay can be described thus: SPR (Biacore), FIG. 2 Section C.
Assay [17] has as its target wildtype feline IL-31 protein (Feline_IL31_wildtype) (feline). The experiment in a line: SPR (Biacore), FIG. 2 Section C.
For assay [18], the target named is canine IL-31 protein (Canine_IL31) (canine). The assay can be described thus: SPR (Biacore), FIG. 2 Sections A and C.
Assay [19] concerns the target wildtype feline IL-31 protein (Feline_IL31_wildtype) (feline). The experiment in a line: SPR (Biacore), FIG. 2 Sections A and C.

Results are given in words; binding and its absence hold for the method and conditions named. Binding calls can cover weak binding; strength is not graded here.

B1: Feline 11E12 1.1 (antibody, V domains shown)
VH: QVLLVQSGAEVKKPGASVKIFCKASGYSFTYYDINWLRQAPEQGLEWMGWIFPGDGGTKYNETFKGRLTLTADTSTNTVYMELSSLRSADTAMYYCARGGTSVIRDAMDYWGQGALVTVSS
VL: EIQMTQSPSSLSASPGDRVTITCRASESVDNYGISFMHWYQQKPGKVPKLLIYRASNLESGVPSRFSGSGSGTDFTLTISSLEPEDAATYYCQQSNKDPLTFGQGT
For B1, the binding result in assay [1], in [2], in assay [3] and in assay [4] was “binds” in each case.

B2: Feline 11E12 1.1 FW2 (antibody, V domains shown)
VH: QVLLVQSGAEVKKPGASVKIFCKASGYSFTYYDINWLRQAPEQGLEWMGWIFPGDGGTKYNETFKGRLTLTADTSTNTVYMELSSLRSADTAMYYCARGGTSVIRDAMDYWGQGALVTVSS
VL: EIQMTQSPSSLSASPGDRVTITCRASESVDNYGISFMHWYQQKPGQPPKLLIYRASNLESGVPSRFSGSGSGTDFTLTISSLEPEDAATYYCQQSNKDPLTFGQGT
For the molecule B2, the binding result in [3] and in [5] was “binds” in each case.

B3: ZIL159 (antibody, V domains shown)
VH: EVQLVESGGDLVKPAGSLRLSCVASGFTFSSYVMTWVRQAPGKGLQWVAGINSEGSRTAYADAVKGRFTISRDNAKNTLYLQIDSLRAEDTAIYYCATGDIVATGTSYWGQGTLVTVSS
VL: SNVLTQPPSVSVSLGQTATISCSGETLNRFYTQWFQQKAGQAPVLVIYKDTERPSGIPDRFSGSSSGNIHTLTISGARAEDEAAYYCKSAVSIDVGVFGGGTHLTVFR
With B3, the binding entry in assay [6] and in [7] was “binds” in each case.

B4: ZIL94 (antibody, V domains shown)
VH: EVQLVDSGGDLVKPGGSLRLSCVASGFTFSTYFMSWVRQAPGRGLQWVALISSDGSGTYYADAVKGRFTISRDNAKNTLYLQMNSLRAEDTAMYYCAIFWRAFNDWGQGTLVTVSS
VL: QTVVIQEPSLSVSPGGTVTLTCGLNSGSVSTSNYPGWYQQTRGRTPRTIIYDTGSRPSGVPNRFSGSISGNKAALTITGAQPEDEADYYCSLYTDSDILVFGGGTHLTVLR
For the molecule B4, the binding result in assay [6] and in assay [7] was “binds” each time.

B5: ZTS-1505 (antibody)
heavy: QVLLVQSGAEVRTPGASVKIFCKASGYSFTSYTIHWLRQAPAQGLEWMGNINPTSGYTENNQRFKDRLTLTADTSTNTAYMELSSLRSADTAMYYCARWGFKYDGEWSFDVWGAGTTVTVSSASTTAPSVFPLAPSCGTTSGATVALACLVLGYFPEPVTVSWNSGALTSGVHTFPAVLQASGLYSLSSMVTVPSSRWLSDTFTCNVAHPPSNTKVDKTVRKTDHPPGPKPCDCPKCPPPEAAGAPSIFIFPPKPKDTLSISRTPEVTCLVVDLGPDDSDVQITWFVDNTQVYTAKTSPREEQFNSTYRVVSVLPILHQDWLKGKEFKCKVNSKSLPSPIERTISKAKGQPHEPQVYVLPPAQEELSRNKVSVTCLIKSFHPPDIAVEWEITGQPEPENNYRTTPPQLDSDGTYFVYSKLSVDRSHWQRGNTYTCSVSHEALHSHHTQKSLTQSPGK
light: EIQMTQSPSSLSASPGDRVTITCRASQGISIWLSWYQQKPGNIPKVLINKASNLHIGVPSRFSGSGSGTDFTLTISSLEPEDAATYYCLQSQTYPLTFGGGTKLEIKRSDAQPSVFLFQPSLDELHTGSASIVCILNDFYPKEVNVKWKVDGVVQNKGIQESTTEQNSKDSTYSLSSTLTMSSTEYQSHEKFSCEVTHKSLASTLVKSFQRSEC
notes: also called ZT-1 505
Consider B5, for which the binding entry in [8], in assay [9] and in [10] was “binds” throughout.

B6: ZTS-361 (antibody)
heavy: QVLLVQSGAEVRTPGASVKIFCKASGYSFTSYTIHWLRQAPAQGLEWMGNINPTSGYTENNQRFKDRLTLTADTSTNTAYMELSSLRSADTAMYYCARWGFKYDGEWSFDVWGAGTTVTVSSASTTAPSVFPLAPSCGTTSGATVALACLVLGYFPEPVTVSWNSGALTSGVHTFPAVLQASGLYSLSSMVTVPSSRWLSDTFTCNVAHPPSNTKVDKTVRKTDHPPGPKPCDCPKCPPPEAAGAPSIFIFPPKPKDTLSISRTPEVTCLVVDLGPDDSDVQITWFVDNTQVYTAKTSPREEQFNSTYRVVSVLPILHQDWLKGKEFKCKVNSKSLPSPIERTISKAKGQPHEPQVYVLPPAQEELSRNKVSVTCLIKSFHPPDIAVEWEITGQPEPENNYRTTPPQLDSDGTYFVYSKLSVDRSHWQRGNTYTCSVSHEALHSHHTQKSLTQSPGK
light: EIQMTQSPSSLSASPGDRVTITCRASQGISIWLSWYQQKPGNIPKVLINKASNLHIGVPSRFSGSGSGTDFTLTISSLEPEDAATYYCLQSQTYPLTFGGGTKLEIKRSDAQPSVFLFQPSLDELHTGSASIVCILNDFYPKEVNVKWKVDGVVQNKGIQESTTEQNSKDSTYSLSSTLTMSSTEYQSHEKFSCEVTHKSLASTLVKSFQRSECQRE
notes: Felinized 15H05 1.1 FW2, effector-null feline heavy constant region
As for B6, the binding result in assay [11] and in assay [9] was “binds” in each case.

B7: ZTS-927 (antibody)
heavy: QVLLVQSGAEVRTPGASVKIFCKASGYSFTSYTIHWLRQAPAQGLEWMGNINPTSGYTENNQRFKDRLTLTADTSTNTAYMELSSLRSADTAMYYCARWGFKYDGEWSFDVWGAGTTVTVSSASTTAPSVFPLAPSCGTTSGATVALACLVLGYFPEPVTVSWNSGALTSGVHTFPAVLQASGLYSLSSMVTVPSSRWLSDTFTCNVAHPPSNTKVDKTVRKTDHPPGPKPCDCPKCPPPEMLGGPSIFIFPPKPKDTLSISRTPEVTCLVVDLGPDDSDVQITWFVDNTQVYTAKTSPREEQFNSTYRVVSVLPILHQDWLKGKEFKCKVNSKSLPSPIERTISKAKGQPHEPQVYVLPPAQEELSRNKVSVTCLIKSFHPPDIAVEWEITGQPEPENNYRTTPPQLDSDGTYFVYSKLSVDRSHWQRGNTYTCSVSHEALHSHHTQKSLTQSPGK
light: EIQMTQSPSSLSASPGDRVTITCRASQGISIWLSWYQQKPGNIPKVLINKASNLHIGVPSRFSGSGSGTDFTLTISSLEPEDAATYYCLQSQTYPLTFGGGTKLEIKRSDAQPSVFLFQPSLDELHTGSASIVCILNDFYPKEVNVKWKVDGVVQNKGIQESTTEQNSKDSTYSLSSTLTMSSTEYQSHEKFSCEVTHKSLASTLVKSFQRSECQRE
With B7, the binding entry in assay [11] was “binds”.

B8: mouse anti IL-31 antibody 11E12 (antibody, V domains shown)
VH: QVQLQQSGAELVKPGASVKLSCKASGYTFKYYDINWVRQRPEQGLEWIGWIFPGDGGTKYNETFKGKATLTTDKSSSTAYMQLSRLTSEDSAVYFCARGGTSVIRDAMDYWGQGTSVTVSS
VL: DIVLTQSPASLAVSLGQRATISCRASESVDNYGISFMHWYQQKPGQPPKLLIYRASNLESGIPARFSGSGSRTDFTLTINPVETDDVATYYCQQSNKDPLTFGAGTKLELK
For the molecule B8, the binding entry in assay [12], in assay [13] and in assay [7] was “binds” throughout.

B9: Feline 15H05 1.1 FW2 (antibody, V domains shown)
VH: QVLLVQSGAEVRTPGASVKIFCKASGYSFTSYTIHWLRQAPAQGLEWMGNINPTSGYTENNQRFKDRLTLTADTSTNTAYMELSSLRSADTAMYYCARWGFKYDGEWSFDVWGAGTTVTVSS
VL: EIQMTQSPSSLSASPGDRVTITCRASQGISIWLSWYQQKPGNIPKVLINKASNLHIGVPSRFSGSGSGTDFTLTISSLEPEDAATYYCLQSQTYPLTFGGGTKLEIK
B9: the binding result in [14], in assay [15], in assay [16] and in assay [17] was “binds” each time.

B10: Feline 15H05 VH3 mouse VL (antibody, V domains shown)
VH: QVLLVQSGAEVRKPGASVKIFCKASGYSFTSYTIHWLRQAPEQGLEWMGNINPTSGYTENNQRFKDRLTLTADTSTNTAYMELSSLRSADTAMYYCARWGFKYDGEWSFDVWGAGTTVTVSS
VL: DIQMNQSPSSLSASLGDTITVTCRASQGISIWLSWYQQKPGNIPKVLINKASNLHIGVPPRFSGSGSGTHFTLTITSLQPEDIATYYCLQSQTYPLTFGGGTKLEIN
Turning to B10, the binding entry in [18] and in [19] was “binds” throughout.

B11: Feline 15H05 VH1 mouse VL (antibody, V domains shown)
VH: QVLLVQSGAEVRTPGASVKIFCKASGYSFTSYTIHWLRQAPAQGLEWMGNINPTSGYTENNQRFKDRLTLTADTSTNTAYMELSSLRSADTAMYYCARWGFKYDGEWSFDVWGAGTTVTVSS
VL: DIQMNQSPSSLSASLGDTITVTCRASQGISIWLSWYQQKPGNIPKVLINKASNLHIGVPPRFSGSGSGTHFTLTITSLQPEDIATYYCLQSQTYPLTFGGGTKLEIN
For B11, the binding entry in assay [18] and in assay [19] was “binds” each time.
